Hit rate of the full screen: of about 320,000 compounds, about 2,100 (0.66%) were called active. The shares of active, inactive and inconclusive entries below differ from those in the screen. Calls come from the whole dose curve; as a rule, active = well fitted inhibition curve with a large enough effect in the signal ratio, with a control signal flat (not every such curve was filed as active); inconclusive = small, poorly fitted or top-dose-only effect, or effect the other way, or a change in a side signal; inactive = flat fitted curve, though single readings scatter; the % refers to the signal ratio. Where the call is inconclusive, the potency comes from a doubtful curve fit.
Experiment: qHTS Assay for Lipid Storage Modulators in Drosophila S3 Cells
Settings: BODIPY lipid droplet fluorescence, 18-24 h, cells fed with added oleic acid; lipid storage change, negative = inhibition: at 46.1 µM (top of the series) unless noted
Method in brief: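 Drosophila S3 cells got compounds at several concentrations plus oleic acid (400 uM solution). Laser-scanning cytometry with 488 nm excitation read lipid droplets at 500-530 nm and cells at 575-640 nm. Percent activity was relative to 20 uM Triacsin C.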
For `COc1ccc(C(=O)N2CCCC(c3nc(-c4ccc(C)o4)no3)C2)cc1OC` (stereo not drawn), the Potency was inconclusive: 5.17 µM [activator, single point]. With `CSc1nsc(/C=C/Nc2ccc(C)c(C)c2)c1C#N` the lipid storage change, negative = inhibition was inconclusive: 1.75%. In the case of `COc1cc(S(=O)(=O)n2nc(C)cc2C)ccc1Cl`, the Potency is reported as inconclusive: 0.116 µM [activator, full curve]. For `Cc1ccc(-n2c3nc(=O)[nH]c(=O)c-3cc3cc([N+](=O)[O-])ccc32)cc1C`, the Potency was inconclusive: 2.91 µM [falling, full curve]. In the case of `Cc1cc2cc(C)c3nnc(SCC(=O)Nc4ccc(S(=O)(=O)N5CCCCC5)cc4)n3c2cc1C`, the Potency is reported as inconclusive: 13 µM [falling, single point]. With `N#CC1(NC(=O)CN2CCN(S(=O)(=O)c3ccccc3F)CC2)CCCC1` the lipid storage change, negative = inhibition was inconclusive: 40.3%. In the case of `Cc1ccc(CN2C3=NCCN3c3ccccc32)cc1`, the lipid storage change, negative = inhibition is reported as inconclusive: -36%. With `OCC12COC(c3ccccc3)N1C(c1ccccc1)OC2` (stereo not drawn) the lipid storage change, negative = inhibition was inconclusive: -14.5%. In the case of `CCOc1ccc(CC(=O)NCCc2cnc[nH]2)cc1`, the lipid storage change, negative = inhibition is reported as inconclusive: 23.1%. For `O=C(CSc1nnc(Cc2cc(=O)[nH]c(=O)[nH]2)n1-c1ccc(Cl)cc1)NC1CCCC1`, the lipid storage change, negative = inhibition was inconclusive: -12.1%. With `Cc1cccc(NS(=O)(=O)c2nnc(NC(=O)c3ccc(C)c(C)c3)s2)c1` the lipid storage change, negative = inhibition was inconclusive: 26.4%. With `CCOC(=O)c1sc2nc(C)nc(NC3CCC(O)CC3)c2c1C` (stereo not drawn) the lipid storage change, negative = inhibition was inconclusive: -100%. In the case of `Cc1ccc(-c2nnc(OCCN3CCOCC3)c3ccccc23)cc1`, the lipid storage change, negative = inhibition is reported as inconclusive: 14.8%. With `O=C(OC(c1ccccc1)c1nccc2ccccc12)c1cc([N+](=O)[O-])cc([N+](=O)[O-])c1` (stereo not drawn) the lipid storage change, negative = inhibition was inconclusive: 13.5%. In the case of `O=C(N/N=C/c1ccc(OC(=O)c2cccc(Br)c2)cc1)c1cccnc1`, the lipid storage change, negative = inhibition is reported as inconclusive: 31.8%. In the case of `O/N=C/c1ccc(OCc2ccccc2)c(Br)c1`, the lipid storage change, negative = inhibition is reported as inconclusive: 24%. In the case of `COC(=O)c1c(SCC(=O)Nc2ccc(C)cc2)nc(=O)[nH]c1C`, the lipid storage change, negative = inhibition is reported as “inactive”. For `COc1ccccc1C(=O)N/C(=C\c1ccc(Br)cc1)C(=O)N1CCCC1`, the lipid storage change, negative = inhibition was inconclusive: 19.6%. In the case of `O=C(CCN1CCCCCC1)Nc1ccc(F)c(F)c1`, the lipid storage change, negative = inhibition is reported as inconclusive: 52.7%. In the case of `CC(C)Oc1ccc(/C(O)=C2/C(=O)C(=O)N(CCN3CCOCC3)C2c2ccccc2)cc1` (stereo not drawn), the Potency is reported as inconclusive: 6.51 µM [falling, single point]. With `O=C1C2C3CC(C(Br)C3Br)C2C(=O)N1CC1CCCO1` (stereo not drawn) the lipid storage change, negative = inhibition was inconclusive: 19.6%. In the case of `O=C(Nc1ccccc1)c1ccccc1OCc1cccc([N+](=O)[O-])c1`, the lipid storage change, negative = inhibition is reported as inconclusive: -5.51%. In the case of `CCOc1ccc(C2C(C(=O)Nc3ccc(F)cc3)=C(C)Nc3nc(CCCO)nn32)cc1` (stereo not drawn), the Potency is reported as inconclusive: 3.26 µM [falling, full curve, poor fit]. With `O=C(COc1ccccc1O)c1cccs1` the lipid storage change, negative = inhibition was inconclusive: -32%. In the case of `O=C(O)CSc1nnc(CNc2ccccc2Cl)n1-c1ccccc1`, the lipid storage change, negative = inhibition is reported as inconclusive: -10.7%. With `O=C(c1cc2nc(-c3ccco3)cc(C(F)(F)F)n2n1)N1CCN(Cc2ccccc2)CC1` the lipid storage change, negative = inhibition was inconclusive: 127%. With `CCO/C=C1/C(=O)N(CC)c2ccccc21` the Potency was inconclusive: 0.517 µM [falling, full curve]. For `O=C(/C=C/c1ccc2c(c1)OCO2)Nc1nc(-c2ccc(F)cc2)cs1`, the Potency was inconclusive: 0.517 µM [activator, partial curve, poor fit]. For `c1ccc(-c2nnnn2-c2ccccc2)cc1`, the lipid storage change, negative = inhibition was inconclusive: -41.4%. With `Cc1nc(C(=O)Nc2ccccc2)sc1C1(C)CC(c2cccnc2)=NO1` (stereo not drawn) the lipid storage change, negative = inhibition was inconclusive: 13.7%. For `Cc1ccc(S(=O)(=O)N(C)C(C)CCc2ccco2)cc1` (stereo not drawn), the lipid storage change, negative = inhibition was inconclusive: -15.4%. In the case of `CS(=O)(=O)N(CC(=O)NC1CCCCCC1)Cc1ccccc1`, the lipid storage change, negative = inhibition is reported as inconclusive: 0.0629%. In the case of `CCOc1ccc(C2C(C#N)=C(N)Oc3cc(C)n(Cc4ccco4)c(=O)c32)cc1OC` (stereo not drawn), the lipid storage change, negative = inhibition is reported as inconclusive: -32%. In the case of `CC1(CCc2ccccc2)NC(=S)N(c2ccc(Cl)cc2)N1` (stereo not drawn), the Potency is reported as inconclusive: 9.2 µM [activator, partial curve, poor fit]. For `COc1ccc(N2C(=S)NC3CS(=O)(=O)CC32)cc1` (stereo not drawn), the lipid storage change, negative = inhibition was “inactive”. For `CC(=O)c1ccc(NC(=O)C2=CC(c3cccs3)=NS(=O)(=O)N2C)cc1`, the lipid storage change, negative = inhibition was inconclusive: -42.3%. With `Cc1cccc(/C=N/Nc2cc(N3CCOCC3)nc(N3CCOCC3)n2)c1` the lipid storage change, negative = inhibition was inconclusive: 11.5%. With `CCC(CC)C(=O)OCC(=O)NC12CC3CC(CC(C3)C1)C2` the lipid storage change, negative = inhibition was inconclusive: -27.8%. For `CC(=O)Nc1ccc2c(c1)ncn2-c1ccccc1`, the lipid storage change, negative = inhibition was inconclusive: -19.7%. In the case of `CC(C(=O)Nc1ccc(Br)cc1)N(C)CC(=O)NCc1ccco1` (stereo not drawn), the lipid storage change, negative = inhibition is reported as inconclusive: -59%. For `COc1ccc(C(=O)OCC(=O)c2ccc(Cl)s2)c(OC)c1OC`, the lipid storage change, negative = inhibition was inconclusive: 31.1%. In the case of `COc1cccc2c1[C@@H]1CN(CCCCn3c(=O)[nH]c4c(sc5ncc(-c6ccccc6)nc54)c3=O)C[C@@H]1CO2`, the lipid storage change, negative = inhibition is reported as inconclusive: 20.9%. In the case of `Nc1ccn(C2CC(O)C(CO)O2)c(=O)n1` (stereo not drawn), the lipid storage change, negative = inhibition is reported as inconclusive: 12.9%. With `COC(=O)c1ccc(NC(=O)Nc2ccc([N+](=O)[O-])cc2)cc1` the Potency was inconclusive: 16.4 µM [cytotoxic, partial curve]. For `O=C(CCNC(=O)c1ccc(Cl)cc1)NCC(c1ccco1)N1CCCC1` (stereo not drawn), the lipid storage change, negative = inhibition was “inconclusive”. In the case of `CCOc1ccc(S(=O)(=O)N2CCC(C(=O)Nc3cccc(NC(C)=O)c3)CC2)cc1`, the Potency is reported as inconclusive: 18.4 µM [activator, single point]. With `Cc1ccc2cc(CCNC(=O)CCCc3ccccc3)c(=O)[nH]c2c1` the Potency was inconclusive: 29.1 µM [activator, single point]. With `O=C(Nc1cccc(S(=O)(=O)N2CCCCC2)c1)C1CCCN1S(=O)(=O)c1ccccc1F` (stereo not drawn) the lipid storage change, negative = inhibition was inconclusive: -5.71%. For `CCn1ncc(C2C(C(=O)Nc3ccc(C)cn3)=C(C)NC3=C2C(=O)CCC3)c1C` (stereo not drawn), the lipid storage change, negative = inhibition was inconclusive: 7.9%. With `COc1cc(/C=N/NC(=O)c2ccccn2)cc2c1OCO2` the lipid storage change, negative = inhibition was inconclusive: 17.6%. For `CCOC(=O)c1nc(Nc2ccc(C)cc2)c2ccccc2n1`, the Potency was inconclusive: 29.1 µM [activator, partial curve, poor fit]. In the case of `CCCCC(=O)Nc1cc(C)c(NC(=O)c2ccco2)cn1`, the lipid storage change, negative = inhibition is reported as inconclusive: -42.6%. In the case of `CN(C)S(=O)(=O)n1cc(/C=C(\NC(=O)c2ccccc2F)C(=O)N2CCOCC2)c2ccccc21`, the Potency is reported as inconclusive: 3.66 µM [activator, partial curve]. In the case of `O=C(CCc1nc(-c2ccccc2Cl)no1)NC1CCCC1`, the lipid storage change, negative = inhibition is reported as inconclusive: -15.4%. For `O=C(N/N=C/c1ccc2c(c1)OCO2)c1cccs1`, the lipid storage change, negative = inhibition was inconclusive: 23.2%. For `Cc1cc(C(=O)CN2C(=O)NC3(CCCCC3)C2=O)c(C)n1Cc1ccc2c(c1)OCO2`, the Potency was inconclusive: 9.2 µM [activator, partial curve]. For `CCOc1ccc(-n2c(=S)sc3c(=O)[nH]c(SCC(=O)NC(C)CC)nc32)cc1` (stereo not drawn), the Potency was inconclusive: 32.6 µM [activator, single point]. In the case of `O=C(CCNS(=O)(=O)c1cccc2nonc12)NC1CCCCC1`, the lipid storage change, negative = inhibition is reported as inconclusive: 13%. In the case of `COc1cccc(/C=N/c2oc(-c3ccccc3)cc2C#N)c1O`, the lipid storage change, negative = inhibition is reported as inconclusive: 18.4%. For `Cc1occc1C(=O)NNC(=O)c1ccc(S(=O)(=O)N(C)C)cc1`, the lipid storage change, negative = inhibition was inconclusive: 26.2%. For `Cc1ccc(C(=O)CSC2=NC(N)=C(C#N)C3(CCCCC3)C2C(N)=O)cc1` (stereo not drawn), the lipid storage change, negative = inhibition was inconclusive: 22.2%. In the case of `CCN(CC)CC1(O)CCN(C(=O)c2ccc(Cl)c(Cl)c2)CC1`, the lipid storage change, negative = inhibition is reported as inconclusive: -21.4%. In the case of `Cc1cccc(Nc2nc(C)cc(C)c2C#N)c1`, the lipid storage change, negative = inhibition is reported as inconclusive: 27.1%. In the case of `CC(C)Cc1cc(C(=O)N2CCCC(C(=O)c3cc(F)ccc3F)C2)no1` (stereo not drawn), the lipid storage change, negative = inhibition is reported as inconclusive: -48.2%. For `COc1ccc(C2=NS(=O)(=O)N(C)C(C(=O)Nc3ccc(F)cc3F)=C2)cc1`, the lipid storage change, negative = inhibition was inconclusive: -34.2%. In the case of `CN(CC(=O)Nc1ccc(S(=O)(=O)N2CCCC2)cc1)Cc1cccc(Cl)c1Cl`, the Potency is reported as inconclusive: 11.6 µM [falling, partial curve, poor fit]. For `CCCOC(=O)c1ccc2c(c1)C(=O)N(c1ccccc1)C2=O`, the lipid storage change, negative = inhibition was inconclusive: 61.5% [activator]. In the case of `Cn1c(=O)oc2cc(S(=O)(=O)CCC(=O)NCCc3ccccc3)ccc21`, the lipid storage change, negative = inhibition is reported as inconclusive: 404%. With `COc1cc(C(=O)OCC(=O)NC2CC2)cc(OC)c1OC` the lipid storage change, negative = inhibition was inconclusive: 24.6%. For `CCOc1ccccc1N1CCN(C(=O)c2c(C)noc2C)CC1`, the lipid storage change, negative = inhibition was inconclusive: 28.3%. With `COc1ccc(CCNC(=O)/C=C/C(=O)O)cc1` the lipid storage change, negative = inhibition was inconclusive: 5.77%. In the case of `CCc1ccc(OCCOCC(O)CN(CCO)CCO)cc1` (stereo not drawn), the Potency is reported as inconclusive: 0.731 µM [falling, full curve, poor fit]. With `CN(C)c1cccc(C(=O)NCC(c2ccco2)N(C)C)c1` (stereo not drawn) the lipid storage change, negative = inhibition was inconclusive: -114%. For `COc1ccc2c(c1)[C@H]1[C@H](CO2)[C@H](c2ccccc2)[C@]2(C)C(=O)Nc3cc(F)c(F)cc3C(=O)N12`, the Potency was inconclusive: 20.6 µM [falling, single point]. For `CCN(CC)C(=O)C1=C(C)NC(=S)NC1c1cccs1` (stereo not drawn), the Potency was inconclusive: 0.82 µM [rising, single point]. For `O=C(NCc1cn2ccsc2n1)Nc1ccc(Cl)cc1`, the lipid storage change, negative = inhibition was inconclusive: 74.5%. With `O=C(C1CCN(S(=O)(=O)c2cc(Cl)ccc2Cl)CC1)N1CCCC1` the lipid storage change, negative = inhibition was inconclusive: -57.4%. With `Cc1cc2oc(=O)cc(CN3CCN(S(=O)(=O)/C=C/c4ccccc4)CC3)c2cc1C` the Potency was inconclusive: 3.26 µM [activator, full curve].

— PubChem BioAssay AID2685 (National Center for Advancing Translational Sciences (NCATS), 2010)
% is set by controls: 0 for no effect and ±100 for the full control effect; potency is the fitted concentration of half-maximal effect.
